Data as given in paper PMC8632968.

What was measured:
[1] = biological target: T1, Ty3 integrase (Ty3 IN) (Saccharomyces cerevisiae) (UniProt Q99315); assay: SEC and native agarose gel (intasome assembly); settings: 10 mM MgCl2 at assembly start, 25 uM ZnCl2 dialysis, 200 mM NaCl; Sequential binding 30 min per step at RT, 1% agarose EMSA; intasome assembled in 20 mM HEPES pH 8, 730 mM NaCl, 10 mM MgCl2, 10 uM ZnCl2, 1 mM DTT; recombinant protein; protein details: N-terminal His-tag removed by 3C protease; label: Cy5 at 5' end of reactive strand (S3)
T1 sequence (looked up, limits assumed): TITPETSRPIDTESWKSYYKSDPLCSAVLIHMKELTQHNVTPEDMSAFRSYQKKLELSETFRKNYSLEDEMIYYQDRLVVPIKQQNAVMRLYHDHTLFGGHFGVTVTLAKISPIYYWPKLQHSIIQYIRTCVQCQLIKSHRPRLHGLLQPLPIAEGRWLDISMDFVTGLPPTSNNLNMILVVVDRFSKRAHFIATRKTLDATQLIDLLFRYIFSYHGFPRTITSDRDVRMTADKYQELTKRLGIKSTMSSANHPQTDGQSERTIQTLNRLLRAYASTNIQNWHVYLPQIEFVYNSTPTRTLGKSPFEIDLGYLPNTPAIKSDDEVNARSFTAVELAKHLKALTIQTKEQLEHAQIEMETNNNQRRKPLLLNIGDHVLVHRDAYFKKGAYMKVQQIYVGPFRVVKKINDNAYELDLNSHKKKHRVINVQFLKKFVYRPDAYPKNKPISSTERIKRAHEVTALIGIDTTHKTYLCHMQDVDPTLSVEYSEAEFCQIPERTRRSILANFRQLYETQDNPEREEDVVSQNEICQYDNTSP

[2] = biological target: T1, Ty3 integrase (Ty3 IN) (Saccharomyces cerevisiae); assay: cryo-EM structure (4.0 A); settings: IN tetramer with two LTRs, joined to target N4, with TFIIIB (P3+P4); Sequential binding 30 min per step at RT, 1% agarose EMSA; intasome assembled in 20 mM HEPES pH 8, 730 mM NaCl, 10 mM MgCl2, 10 uM ZnCl2, 1 mM DTT; recombinant protein; protein details: N-terminal His-tag removed by 3C protease

GAGCCCGTAATACAACA / GGTGTTGTATTACGGGCTC [Ty3 LTR terminus, Cy5]
binding result [1]: binds

GAGCCCGTAATACAACA / GGTGTTGTATTACGGGCTC [Ty3 LTR terminus, unlabelled]
binding result [2]: binds

Construct, isoform or probe ends are uncertain for at least one entry. At least one verdict was read from the data and is not stated in words by the source. Protein sequences can lack the tags named with them.
